Results deposited as PubChem BioAssay AID1053208 (Peter MacCallum Cancer Centre, 2014).

Purpose: 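Genes whose silencing cuts survival of bone tumour cells only with doxorubicin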 (primary screen)
Cells: mouse osteosarcoma cells, early-passage culture from an engineered mouse model of fibroblastic bone tumour
Reagent: siRNA pool against mouse genes, 40 nM
Time to read-out: about 120 h (48 h before drug, then 72 h with drug)
Treatment: doxorubicin 100 nM for 72 h, roughly 30-40% inhibitory dose
Detection: 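Viability read as ATP luminescence after 72 h of 100 nM doxorubicin or none, duplicate wells averaged, scaled to non-targeting siRNA, then expressed as robust z-scores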
Reading the numbers: viability z-score with doxorubicin: higher = more viable cells under doxorubicin; viability z-score without drug: higher = more viable cells with knock-down alone
Hit rule: 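Called active if knock-down leaves viability unchanged without drug (z within -2 to 2) but lowers it with doxorubicin (z at or under -2)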
The deposit covers about 17,000 reagents; this is a part drawn at random. 788 of them (4.7%) were called active. 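Calls rest on z-score classes alone; an extra cut-off of viability at most 70% of control was not applied to them.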 Unmarked entries are inactive. Further read-outs or replicates are left out here.

Silencing of Or5p68 (olfactory receptor family 5 subfamily P member 68) came out at: combined z-score class no change with or without drug; viability z-score with doxorubicin 0.11; viability z-score without drug 0.17.
After knock-down of Or5b94 (olfactory receptor family 5 subfamily B member 94), the record shows combined z-score class no change with or without drug; viability z-score with doxorubicin -1.24; viability z-score without drug -1.85.
Kcnip3 (Kv channel interacting protein 3, calsenilin) gave combined z-score class no change with or without drug; viability z-score with doxorubicin -0.34; viability z-score without drug 1.85.
Proser3 (proline and serine rich 3) gave combined z-score class no change with or without drug; viability z-score with doxorubicin -0.9; viability z-score without drug -0.51.
Silencing of Zfp61 (zinc finger protein 61) came out at: combined z-score class no change with or without drug; viability z-score with doxorubicin -1.35; viability z-score without drug -0.17.
Against Slc35g3 the deposit lists combined z-score class no change with or without drug; viability z-score with doxorubicin 0; viability z-score without drug 0.84.

Part of the list above, set out differently.
| gene symbol | combined z-score class | viability z-score with doxorubicin | viability z-score without drug |
| --- | --- | --- | --- |
| Kcnip3 (Kv channel interacting protein 3, calsenilin) | no change with or without drug | -0.34 | 1.85 |
| Proser3 (proline and serine rich 3) | no change with or without drug | -0.9 | -0.51 |
| Zfp61 (zinc finger protein 61) | no change with or without drug | -1.35 | -0.17 |

Additional records:
For Fbxw17 (F-box and WD-40 domain protein 17), the entry reads combined z-score class low cell count with doxorubicin only (active); viability z-score with doxorubicin -2.02; viability z-score without drug -0.84.
Rbm12b1 (RNA binding motif protein 12 B1) gave combined z-score class no change with or without drug; viability z-score with doxorubicin 0.67; viability z-score without drug 0.67.
Depletion of Rara (retinoic acid receptor, alpha) gave: combined z-score class no change with or without drug; viability z-score with doxorubicin 0.45; viability z-score without drug 0.17.
Col4a3 (collagen, type IV, alpha 3) gave combined z-score class no change with or without drug; viability z-score with doxorubicin -0.45; viability z-score without drug 0.
Cln6 (ceroid-lipofuscinosis, neuronal 6) scored combined z-score class no change with or without drug; viability z-score with doxorubicin 0.22; viability z-score without drug -1.18.
Depletion of Ppp3r2 came out at: combined z-score class no change with or without drug; viability z-score with doxorubicin 1.8; viability z-score without drug 0.17.
Depletion of Gjb3 (gap junction protein, beta 3) came out at: combined z-score class no change with or without drug; viability z-score with doxorubicin 0.56; viability z-score without drug 0.34.
Knock-down of Ergic3 (ERGIC and golgi 3) resulted in: combined z-score class no change with or without drug; viability z-score with doxorubicin -0.34; viability z-score without drug 0.17.
Mesd (mesoderm development LRP chaperone) scored combined z-score class no change with or without drug; viability z-score with doxorubicin 0.22; viability z-score without drug -0.17.
Alx3 (aristaless-like homeobox 3) gave combined z-score class high cell count with doxorubicin only; viability z-score with doxorubicin 2.7; viability z-score without drug 0.67.
Golga2 (golgin A2) scored combined z-score class no change with or without drug; viability z-score with doxorubicin -1.57; viability z-score without drug 0.17.
Silencing of Zbtb24 (zinc finger and BTB domain containing 24) gave: combined z-score class no change with or without drug; viability z-score with doxorubicin 0.11; viability z-score without drug -1.18.
For Cnksr3 (Cnksr family member 3), the values are combined z-score class no change with or without drug; viability z-score with doxorubicin -1.8; viability z-score without drug -1.01.
